The whole screen tested about 390,000 compounds, of which about 910 (0.23%) were called active. Inconclusive means that the source gave no clear call. Such entries were picked first, then a sample of the others. Calls follow the shape of the dose curve; as a rule, active = well fitted inhibition curve with a large enough effect; inconclusive = small, poorly fitted or top-dose-only effect; inactive = no such curve, though single readings can be large or run the other way. Potencies beside an inconclusive call are fits to weak or partial responses and may not hold up.
target: Ubiquitin carboxyl-terminal hydrolase 1 (Homo sapiens) (UniProt O94782); assay: Inhibitors of USP1/UAF1: Primary Screen; details: recombinant USP1/UAF1, Ub-Rhodamine cleavage fluorescence; activity change, negative = inhibition: at 57.1 µM (top of the series); also: nearly all actives have a fitted effect of over 60% in size
In short: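 1 nM enzyme complex + cpd, 15 min RT; start with Ub-Rho 150nM final; kinetic fluorescence ex 480/em 540, 6 reads q60 s. Buffer 50mM HEPES pH 7.8, 0.5mM EDTA, 0.1 mg/ml BSA, 1mM TCEP, 0.01% Tween-20.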
% is scaled to controls: 0 for no effect and ±100 for the full control effect; potency is read from the fitted curve at half-maximal effect.

Chains of the proteins cited; added tags and fusions are not shown. Lines headed by an entry give the natural chain unless they say otherwise; changes in a name come on top.
UniProt O94782: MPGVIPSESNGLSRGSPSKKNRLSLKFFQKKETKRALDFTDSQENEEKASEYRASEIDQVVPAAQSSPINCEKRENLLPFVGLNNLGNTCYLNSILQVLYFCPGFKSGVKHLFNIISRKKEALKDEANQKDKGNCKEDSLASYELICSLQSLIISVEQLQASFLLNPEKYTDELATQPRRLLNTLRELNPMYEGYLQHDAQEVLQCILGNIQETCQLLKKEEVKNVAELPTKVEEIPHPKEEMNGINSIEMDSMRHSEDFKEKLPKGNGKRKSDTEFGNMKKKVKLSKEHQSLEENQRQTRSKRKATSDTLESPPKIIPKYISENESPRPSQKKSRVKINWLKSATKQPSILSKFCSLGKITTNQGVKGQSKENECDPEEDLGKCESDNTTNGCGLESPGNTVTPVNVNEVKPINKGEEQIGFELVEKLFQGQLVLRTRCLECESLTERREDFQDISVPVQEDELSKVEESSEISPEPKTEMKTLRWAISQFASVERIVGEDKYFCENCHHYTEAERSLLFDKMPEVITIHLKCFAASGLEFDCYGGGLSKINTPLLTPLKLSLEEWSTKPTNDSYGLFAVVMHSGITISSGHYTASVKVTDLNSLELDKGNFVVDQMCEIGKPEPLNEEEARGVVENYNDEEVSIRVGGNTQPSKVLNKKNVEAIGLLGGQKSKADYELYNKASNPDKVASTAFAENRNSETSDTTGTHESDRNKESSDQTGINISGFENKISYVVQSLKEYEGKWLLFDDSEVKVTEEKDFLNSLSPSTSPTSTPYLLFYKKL

| Compound | activity change, negative = inhibition | Potency |
| --- | --- | --- |
| COc1ccc(NC(=O)C(NS(=O)(=O)c2cccc3nsnc23)c2ccccc2)cc1 (configuration not stated) | inactive: -7.59% | – |
| CCC1=[N+](C)c2cccc3cccc(c23)N1C | – | inconclusive: 15.8 µM [inhibitor, partial curve, poor fit] |
| CCCCNc1c(-c2ccc(OC)c(SC3CCCCC3)c2)nc2ccc(C)cn12 | inactive: -6.8% | – |
| COc1ccc(CCNC(=O)C2CCN(C(=O)c3ccc(Cl)cc3)CC2)cc1 | – | inconclusive: 14.1 µM [inhibitor, partial curve, poor fit] |
| COC(=O)[C@@]1(C)[C@H]2C(=O)N(C)C(=O)[C@H]2[C@H]2CN=C(SCc3ccc(Cl)cc3)N21 | – | inconclusive: 28.2 µM [inhibitor, partial curve] |
| CCCCn1cc(S(=O)(=O)c2ccc(F)cc2)c(=O)c2ccccc21 | inactive: -23.6% | – |
| O=C(CNC(=O)c1ccc(Br)cc1)NCC(=O)OCC(=O)c1ccc([N+](=O)[O-])cc1 | inactive: -0.573% | – |
| Oc1ccc(/C=N/Nc2ncnc3nc[nH]c23)cc1 | inactive: -26.8% | – |
| COc1ccc(C(=O)NNC(=O)CSc2nc(C(C)C)nc3ccccc23)cc1 | – | inconclusive: 0.631 µM [inhibitor, full curve, poor fit] |
| Cc1cccc(C2=NN(c3ccccc3)[C@@H](C(=O)N3CCOC3=O)[C@@H]2c2ccccc2)c1 | – | inconclusive: 50.1 µM [inhibitor, partial curve, poor fit] |
| COc1ccc(S(=O)(=O)N(C)C[C@H]2Oc3ccc(NS(=O)(=O)c4ccc(F)cc4)cc3C(=O)N([C@H](C)CO)C[C@@H]2C)cc1 | – | inconclusive: 7.94 µM [inhibitor, partial curve] |
| CC(C)(O)c1cc2ccccc2c(=O)o1 | – | inconclusive: 6.31 µM [inhibitor, single point] |
| COc1ccc2nc3sc(C(=O)NCCCN4CCc5ccccc5C4)cc3cc2c1 | – | inconclusive: 39.8 µM [inhibitor, partial curve, poor fit] |
| CN(c1cccc2cccnc12)S(=O)(=O)c1ccccc1 | – | inconclusive: 50.1 µM [inhibitor, partial curve, poor fit] |
| COc1ccc(-c2oc(NC(=O)CCl)c(C#N)c2-c2ccc(OC)cc2)cc1 | – | inconclusive: 14.1 µM [inhibitor, partial curve] |
| Cc1cc2c(cc1C)NC(CC(=O)Nc1ccccc1SC(F)(F)F)C(=O)N2 (configuration not stated) | – | inconclusive: 35.5 µM [inhibitor, partial curve] |

Full records as entered above.
`CCCCn1cc(S(=O)(=O)c2ccc(F)cc2)c(=O)c2ccccc21` is listed as activity change, negative = inhibition: inactive: -23.6%
`Oc1ccc(/C=N/Nc2ncnc3nc[nH]c23)cc1` is listed as activity change, negative = inhibition: inactive: -26.8%

(next part)

| Compound | activity change, negative = inhibition | Potency |
| --- | --- | --- |
| O=C(COCc1cc(-c2cccs2)on1)Nc1ccc(OC(F)(F)F)cc1 | – | inconclusive: 31.6 µM [inhibitor, partial curve, poor fit] |
| COc1ccccc1NS(=O)(=O)c1cc([N+](=O)[O-])ccc1N/N=C/c1c(C)[nH]c2ccccc12 | – | active: 28.2 µM |
| CCOc1ccc(S(=O)(=O)N2CCCCC2)c(C)c1C | – | inconclusive: 44.7 µM [inhibitor, partial curve] |
| O=C(CSCc1ccccc1F)NCc1ccc(F)cc1 | – | inconclusive: 5.62 µM [inhibitor, full curve, poor fit] |
| NS(=O)(=O)c1ccc(N/N=C/c2ccncc2)cc1 | inactive: -12.4% | – |
| O=C(c1cccc(S(=O)(=O)N2CCCC2)c1)N1CCCC(C(F)(F)F)C1 (configuration not stated) | – | inconclusive: 3.98 µM [inhibitor, full curve] |
| Cc1ccc(SCC(=O)NNC(=O)c2cncc(Br)c2)cc1 | – | inconclusive: 0.398 µM [inhibitor, full curve] |
| COc1ccccc1C(=O)OCc1cc(=O)n2ccsc2n1 | – | inconclusive: 8.91 µM [inhibitor, partial curve, poor fit] |
| O=c1cc(O)c2sc(Nc3cccc(C(F)(F)F)c3)nc2[nH]1 | inactive: 2.7% | – |
| O=C(/C=C/c1cccc(Br)c1)c1ccc2c(c1)OCO2 | – | inconclusive: 50.1 µM [inhibitor, partial curve, poor fit] |
| CCCC(C(=O)OCCN(CC)CC)(c1ccccc1)c1ccccc1 | – | inconclusive: 14.1 µM [inhibitor, partial curve, poor fit] |
| CCn1cc(CN2CCCC(C(=O)Nc3ccc(-c4nc5ccccc5[nH]4)cc3)C2)c(C)n1 (configuration not stated) | – | inconclusive: 50.1 µM [inhibitor, partial curve] |
| O=C(Cn1c(=O)oc2cc(S(=O)(=O)N3CCCC3)ccc21)NC1CCCc2ccccc21 (configuration not stated) | – | inconclusive: 0.708 µM [inhibitor, full curve, poor fit] |
| O=C(Nc1ccc(S(=O)(=O)Nc2nccs2)cc1)c1cccc(N2C(=O)c3ccccc3C2=O)c1 | – | inconclusive: 44.7 µM [inhibitor, partial curve, poor fit] |
| COc1ccccc1C1NC=C([N+](=O)[O-])C=C1[N+](=O)[O-] (configuration not stated) | inactive: -20.6% | – |
| Cc1ccc(S(=O)(=O)c2cc3c(=O)n4ccccc4nc3n(Cc3ccco3)c2=N)cc1 | – | inconclusive: 12.6 µM [inhibitor, partial curve] |

Source: PubChem BioAssay AID743255 (National Center for Advancing Translational Sciences (NCATS), 2014)
